This passage reports binding results from US20250197453A1, “COMPOSITION COMPRISING TAT PEPTIDE VARIANT AS ACTIVE INGREDIENT FOR PREVENTING OR TREATING METABOLIC DISEASES” (priority 2021, published 2025).

Chains of the proteins cited; added tags and fusions are not shown. Residues count along the entry.
UniProt O60563, residues 1-266: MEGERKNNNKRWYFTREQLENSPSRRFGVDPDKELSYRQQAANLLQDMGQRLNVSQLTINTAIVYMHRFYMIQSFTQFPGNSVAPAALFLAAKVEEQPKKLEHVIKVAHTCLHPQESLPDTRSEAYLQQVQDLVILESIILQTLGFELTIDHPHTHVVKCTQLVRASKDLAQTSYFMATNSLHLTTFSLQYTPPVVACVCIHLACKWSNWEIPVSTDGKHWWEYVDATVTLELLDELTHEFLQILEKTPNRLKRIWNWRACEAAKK
UniProt P04608, residues 1-72: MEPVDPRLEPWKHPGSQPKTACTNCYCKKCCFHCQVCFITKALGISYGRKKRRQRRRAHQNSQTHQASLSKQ

For experiment [1], the target named is Cyclin T1 (UniProt O60563). Description: analysis of crystal structure of the TAT-Cyclin T1-CDK9 complex.
Experiment [2] deals with Cyclin T1 (UniProt O60563). Briefly: crystal structure of the TAT-Cyclin T1-CDK9 complex, X-ray diffraction (figure legend).

Results are given in words; binding and its absence hold for the method and conditions named. Some results given as binding are weak or reduced against the parent protein; the word gives no strength.

Regarding “TAT (HIV-1 transcriptional activator protein, TAT peptide 72 a.a.) (from UniProt P04608 1-72)”, the binding result in experiment [1] and in experiment [2] was “binds” in each case.
